# Values from PubChem BioAssay AID1259405 (NCATS, 2018)
# Aim: 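Mouse-designed siRNAs used to find CHO productivity engineering targets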 (primary screen)
# Cells: Chinese hamster CHO-K1 ovary cells with stable secreted eGFP expression
# Knock-down reagent: single siRNA against mouse genes, 0.8 pmol siRNA per well (2 µl of 400 nM stock)
# Timing: 3 days
# Detection: 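Percent of the per-plate non-targeting control median for intracellular GFP per well by laser scanning cytometry and for cell viability by ATP luminescence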
# Scale: GFP, % of control: higher = more GFP per well, higher productivity; viability (ATP), % of control: higher = more viable cells (more ATP)
# Active means: 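Called active when intracellular GFP, relative to negative control, is at or above 120%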
# Here is one part, drawn at random, of about 50,000 deposited reagents. Over the whole deposit, about 4,000 (8%) got an active call. 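Mouse siRNA library applied to hamster cells; one well for each siRNA.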 Unmarked entries are inactive. The numbers tell different reagents against one gene apart.
gene,reagent,"GFP, % of control","viability (ATP), % of control"
Or5t7,1,75.1,79.6
Or5t7,2,73.8,71.1
Or5t7,3,71.5,40.8
Tha1,1,108,63.2
Tha1,2,59.4,69.3
Tha1,3,66.9,82.1
Ephx3,1,89.1,66.4
Ephx3,2,80.7,78.9
Ephx3,3,76.5,83.9
Ubqlnl,1,197 (active),94.1
Ubqlnl,2,46.1,31
Ubqlnl,3,85.4,98.9
Tas2r118,1,66,97.9
Tas2r118,2,88.6,94
Tas2r118,3,78.1,61.5
Rasgrf1,1,72.2,82.2
Rasgrf1,2,115,38.4
Rasgrf1,3,78.1,76.4
Arsg,1,97.1,80.2
Arsg,2,49,57.4
Arsg,3,44.6,46.5
Camk2g,1,118,119
Camk2g,2,81,64.8
Camk2g,3,79,68.8
Trerf1,1,84.1,85.8
Trerf1,2,59.6,77.3
Trerf1,3,65.9,45
Pmvk,1,67.8,123
Pmvk,2,84.7,79.5
Actr1b,1,108,83.6
Actr1b,2,71.6,87.3
Or6k8,1,51.4,29.7
Or6k8,2,106,119
Or6k8,3,47,25
Pitpnm3,1,98.4,122
Pitpnm3,2,72.8,73.1
Pitpnm3,3,61.8,68.8
Mrpl39,1,95.4,109
Mrpl39,2,74.5,71.7
Mrpl39,3,105,94.8
Plagl2,1,65.7,79.6
Plagl2,2,106,98.3
Plagl2,3,64.2,73.7

Reformatted: 4 of the entries above.
{"gene": "Trerf1", "reagent": 1, "GFP, % of control": 84.1, "viability (ATP), % of control": 85.8}
{"gene": "Trerf1", "reagent": 2, "GFP, % of control": 59.6, "viability (ATP), % of control": 77.3}
{"gene": "Trerf1", "reagent": 3, "GFP, % of control": 65.9, "viability (ATP), % of control": 45}
{"gene": "Pmvk", "reagent": 1, "GFP, % of control": 67.8, "viability (ATP), % of control": 123}

The results go on.
gene,reagent,"GFP, % of control","viability (ATP), % of control"
Ccdc116,1,79.3,44.8
Ccdc116,2,104,42.9
Ccdc116,3,75.3,74.5
Krt18,1,75.6,57.3
Krt18,2,76.8,72.9
Krt18,3,91,79.8
Il12rb1,1,74.1,69.1
Il12rb1,2,63.2,34.4
Or14c43,1,81.3,50.4
Or14c43,2,46.4,30.8
Or14c43,3,56.6,70.6
Aknaos,1,169 (active),62
Aknaos,2,99.3,109
Aknaos,3,153 (active),129
Pttg1ip,1,84,105
Pttg1ip,2,89.4,54.7
Pttg1ip,3,57.1,58.1
Bcar1,1,89.1,109
Bcar1,2,74.3,102
Bcar1,3,103,88.3
Lum,1,81.1,62.2
Lum,2,64.2,57.1
Lum,3,62.3,64.3
Tmem234,1,131 (active),80.1
Tmem234,2,86.2,91
Tmem234,3,56.7,47.3
Ice1,1,69.8,57.5
Ice1,2,69.1,75.8
Ice1,3,97.9,58.4
Pycr1,1,78.5,95.3
Pycr1,2,75.5,48.9
Pycr1,3,128 (active),75.4
Phax,1,42,38.4
Phax,2,98.4,83.8
Phax,3,128 (active),91.4
Ypel5,1,64.9,68.3
Ypel5,2,62.2,64
Ypel5,3,86.1,116
Akap7,1,95.3,86.8
Akap7,2,106,77.8
Akap7,3,65.6,91.6
